Reference: PubChem BioAssay AID1159578 (Peter MacCallum Cancer Centre, 2015)
Here is one part, drawn at random, of about 18,000 reagents. In the full data, about 1,030 (5.7%) were called active. 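Inactive calls also include pools with fewer than 3300 nuclei, whose migration was not assessed.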 The raw values are shown without normalisation. No sequences are given here.

Purpose: 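Genome-wide hunt for genes controlling movement of lymphatic endothelial cells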 (primary screen)
Cell system: human lymphatic endothelial cells
Reagents: siRNA pool against human genes, 40 nM
Timing: 48 h after transfection
Read-out: 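High-content imaging of dye-stained cells in a scratch assay measures filled wound area and nuclei per well; duplicate means given as ratio to mock and robust z-score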
Direction: migration robust z-score: higher = faster migration into the scratch; migration relative to mock: higher = more scratch area covered than mock; nuclei per well: higher = more cells in the well
Hit rule: 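Migration changed when robust z exceeds 2 or falls below -2 and mean nuclei number is at least 3300; otherwise not called changed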
Calls: active = migration changed; inactive = no migration change, or too few cells

gene knocked down	PubChem SID	migration robust z-score	migration class with cell-count check	migration relative to mock	nuclei per well, duplicate mean	Call
HAUS3	SID255360288	0.05	migration z between -2 and 2; enough cells	0.9	6664	inactive
SETD1A	SID255354515	0.78	migration z between -2 and 2; enough cells	0.96	6246	inactive
IFIT1	SID255350398	0.2	migration z between -2 and 2; enough cells	0.94	5618	inactive
MRTFB	SID255359421	-1.61	migration z between -2 and 2; enough cells	0.5	4944	inactive
IL18R1	SID255353830	0.65	migration z between -2 and 2; enough cells	0.93	6814	inactive
ARFGAP1	SID255358818	-0.34	migration z between -2 and 2; enough cells	0.74	4654	inactive
OR8H1	SID255364171	-0.84	migration z between -2 and 2; enough cells	0.66	5797	inactive
OSBP2	SID255356421	-0.64	migration z between -2 and 2; enough cells	0.72	5562	inactive
SPATA2	SID255354587	2.22	migration z above 2; enough cells	1.46	6616	active
IL4	SID255350454	-0.18	migration z between -2 and 2; enough cells	0.77	5856	inactive
HMGB4	SID255362759	-0.44	migration z between -2 and 2; enough cells	0.77	7112	inactive
EIF4A1	SID255349466	-0.98	migration z between -2 and 2; enough cells	0.62	5922	inactive
COPS3	SID255353625	-0.9	migration z between -2 and 2; enough cells	0.65	6032	inactive
GFRA3	SID255349877	-0.02	migration z between -2 and 2; enough cells	0.8	5845	inactive
MTHFD1	SID255351059	1.69	migration z between -2 and 2; enough cells	1.13	5972	inactive
PDE3B	SID255351466	-0.6	migration z between -2 and 2; enough cells	0.69	5728	inactive
OR10X1	SID255362794	0.86	migration z between -2 and 2; enough cells	1.1	5326	inactive
TP53	SID255352934	-0.6	migration z between -2 and 2; enough cells	0.73	6818	inactive
EVA1A	SID255361213	0.13	migration z between -2 and 2; enough cells	0.92	7150	inactive
GALNT2	SID255349821	0.21	migration z between -2 and 2; enough cells	0.84	4767	inactive
NANOS2	SID255365031	-0.88	migration z between -2 and 2; enough cells	0.66	4776	inactive
CCDC186	SID255358400	-0.21	migration z between -2 and 2; enough cells	0.83	6325	inactive
DNAJC3	SID255351828	-1.87	migration z between -2 and 2; enough cells	0.4	4496	inactive
ZNF449	SID255364132	-0.6	migration z between -2 and 2; enough cells	0.73	3626	inactive
CADM3	SID255359614	0.51	migration z between -2 and 2; enough cells	1.02	5276	inactive
SALL4	SID255359314	0	migration z between -2 and 2; enough cells	0.88	6359	inactive
RPL11	SID255352171	-1.79	migration z between -2 and 2; enough cells	0.42	5084	inactive

Limited to “migration robust z-score” (3 entries from above):
HMGB4 [SID255362759]: -0.44
EIF4A1 [SID255349466]: -0.98
COPS3 [SID255353625]: -0.9

Next reagents follow:
gene knocked down	PubChem SID	migration robust z-score	migration class with cell-count check	migration relative to mock	nuclei per well, duplicate mean	Call
PIP5K1B	SID255353525	-1.61	migration z between -2 and 2; enough cells	0.5	4019	inactive
EDIL3	SID255354796	0.47	migration z between -2 and 2; enough cells	1	5530	inactive
SGO1	SID255363505	0.19	migration z between -2 and 2; enough cells	0.94	3996	inactive
CBFA2T3	SID255348715	-2	migration z between -2 and 2; enough cells	0.42	5170	inactive
CLEC12B	SID255365458	-0.08	migration z between -2 and 2; enough cells	0.86	5646	inactive
WDR74	SID255358118	0.21	migration z between -2 and 2; enough cells	0.94	6159	inactive
CAV3	SID255348711	0.78	migration z between -2 and 2; enough cells	0.96	4679	inactive
NAB1	SID255351132	-0.28	migration z between -2 and 2; enough cells	0.82	5208	inactive
HCST	SID255355403	-0.75	migration z between -2 and 2; enough cells	0.69	5734	inactive
CILP2	SID255363365	0	migration z between -2 and 2; enough cells	0.88	5185	inactive
MC5R	SID255350896	-0.29	migration z between -2 and 2; enough cells	0.75	6934	inactive
PDK4	SID255351492	-0.39	migration z between -2 and 2; enough cells	0.73	6666	inactive
SIRT6	SID255357779	0.16	migration z between -2 and 2; enough cells	0.84	4914	inactive
TOR1AIP1	SID255356662	-1.05	migration z between -2 and 2; enough cells	0.61	4348	inactive
CES2	SID255353844	-0.5	migration z between -2 and 2; enough cells	0.71	5322	inactive
GSTA5	SID255364289	-0.26	migration z between -2 and 2; enough cells	0.76	5749	inactive
NR1I3	SID255354708	-0.34	migration z between -2 and 2; enough cells	0.74	4920	inactive
PIGQ	SID255354026	-0.24	migration z between -2 and 2; enough cells	0.82	5560	inactive
SMURF2	SID255359972	-2.7	migration z below -2; enough cells	0.28	4432	active
MTG1	SID255361986	-0.92	migration z between -2 and 2; enough cells	0.64	4945	inactive
ARPC1A	SID255355172	0.81	migration z between -2 and 2; enough cells	1.1	4486	inactive
ACKR3	SID255359228	-0.05	migration z between -2 and 2; enough cells	0.8	3642	inactive
CDC42BPG	SID255358686	-2.26	migration z below -2; enough cells	0.37	4632	active
SHLD2	SID255358070	0.46	migration z between -2 and 2; enough cells	1	5640	inactive
CAPN11	SID255355616	1.35	migration z between -2 and 2; enough cells	1.06	5425	inactive
OR6V1	SID255365204	0.69	migration z between -2 and 2; enough cells	1.06	5670	inactive
SIPA1L3	SID255355985	-0.79	migration z between -2 and 2; enough cells	0.68	5040	inactive
NR3C2	SID255350988	1.25	migration z between -2 and 2; enough cells	1.04	6651	inactive
OR4N5	SID255365649	-0.14	migration z between -2 and 2; enough cells	0.85	6954	inactive
SEC61A2	SID255358472	0.24	migration z between -2 and 2; enough cells	0.94	5834	inactive
